# Test results: PubChem BioAssay AID445 (National Center for Advancing Translational Sciences (NCATS), 2006)
# Some of the results follow. Further columns of the screen follow, without active or inactive calls. Compounds called inactive in the main read-out are mostly missing here. Potencies come from curve fits of mixed quality, noted in brackets.
# Test: IkB Signaling
# Details: ABC-DLBCL IkBa-CBG/CBR dual luciferase ratio (green luciferase fused to IkBa over red control in OCI-Ly3 lymphoma cells), 4 h
# Method in brief: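 Curves were fitted separately to fusion (green), unfused (red) and ratio luminescence, then classed by r2, magnitude and activity. Cells: OCI-Ly3, 4 h compound plus doxycycline at 37C; 10 uM MG-132 defined full response.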
# [1] = measured here: control luc red channel unless noted
# [2] = measured here: IkB-luc green channel
# [3] = measured here: control luc red channel
smiles,measurement,setting,value
COC(=O)c1c(SC)nc2ccccc2c1OCc1ccc(C)cc1C,AC50,[1],"3.98 µM [falling, full curve, poor fit]"
O=C(CSc1nnc2scc(-c3ccc(Cl)cc3)n12)Nc1ccccc1F,AC50,[1],"3.16 µM [falling, partial curve]"
Cc1ccc2onc(CC(=O)Nc3cc(F)ccc3F)c2c1,AC50,[1],"39.8 µM [falling, single point]"
COc1ccc(C(=O)Nc2ccc3c(c2)N(C2CCCC2)C(=O)c2ccccc2S3)cc1OC,AC50,[1],"12.6 µM [falling, partial curve]"
CC(CNC(=O)c1ccc(CSc2nc3ccncc3n2Cc2cccc(F)c2)cc1)c1ccccc1 (configuration not stated),AC50,[1],"25.1 µM [falling, partial curve]"
Cc1ccc(C)c(-c2nn(CC(=O)Nc3cc(F)ccc3F)c(=O)c3c2CCCC3)c1,AC50,[1],"15.8 µM [falling, partial curve]"
COc1cc(C(=O)Nc2ccc(Cl)c(-c3nc4ncccc4o3)c2)cc(OC)c1OC,AC50,[1],"15.8 µM [falling, partial curve, poor fit]"
O=C(Cn1cc(S(=O)(=O)N2CCN(c3ccccc3F)CC2)c2ccccc2c1=O)Nc1cccc(C(F)(F)F)c1,AC50,[1],"3.98 µM [falling, partial curve]"
Cc1cccc2c1-c1sc(C(=O)N3CCN(c4ccc(F)cc4)CC3)cc1CO2,AC50,[1],"31.6 µM [falling, single point]"
COc1ccccc1CNC(=O)CSc1nc(-c2ccc(OC)c(OC)c2)cc(C(F)(F)F)n1,AC50,[1],"25.1 µM [falling, single point]"
O=C(NCC(c1cccs1)S(=O)(=O)c1cccs1)c1ccc(F)c(F)c1 (configuration not stated),AC50,[1],"39.8 µM [falling, single point]"
COc1ccc(C(=O)Nc2nnc(-c3ccccc3)o2)cc1OC,AC50,[2],"39.8 µM [rising, single point]"
same,AC50,[3],"20 µM [falling, partial curve]"
C[C@@H](C(=O)O)c1ccc(C[C@@H]2CCCC2=O)cc1,AC50,[1],"1 µM [rising, full curve, poor fit] [measured here: IkB-luc green channel]"
COC(=O)c1sccc1S(=O)(=O)N(CC(=O)Nc1cc(C)ccc1C)c1ccc(C)c(C)c1,AC50,[1],"10 µM [falling, partial curve]"
CCC(C)NC(=O)c1ccc2c(c1)sc1nc(-c3ccc(OC)cc3)cn12 (configuration not stated),AC50,[1],"15.8 µM [falling, partial curve]"
O=C(CSc1nc2c([nH]c3ccccc32)c(=O)n1-c1cccc(Cl)c1)N1CCCC1,AC50,[1],"0.794 µM [rising, full curve]"
COC(=O)C1=C(C)NC(C)=C(C(=O)OCCSc2ccccc2)[C@@H]1C,AC50,[1],"31.6 µM [falling, partial curve]"
CCn1c(SCC(=O)Nc2nc(-c3ccccc3)cs2)nnc1-c1ccccc1O,AC50,[2],"15.8 µM [falling, partial curve, poor fit]"
same,AC50,[3],"12.6 µM [falling, partial curve]"
FC(F)(F)c1cc(-c2ccc3c(c2)OCO3)nc(NCc2ccco2)n1,AC50,[2],"1.26 µM [rising, full curve]"
same,AC50,[3],"7.94 µM [falling, full curve]"
Cc1ccc(N2CCN(S(=O)(=O)c3nnc(NC(=O)c4ccccc4)s3)CC2)cc1,AC50,[1],"2 µM [rising, partial curve]"
Nc1ccccc1-c1nnc(SCc2ccccc2F)[nH]c1=O,AC50,[1],"12.6 µM [falling, partial curve]"
Cc1ccccc1Cn1nc(C)c(NC(=O)c2noc3c2CCc2ccccc2-3)c1C,AC50,[1],"10 µM [falling, partial curve]"
CCCCNc1nc2c(S(=O)(=O)c3ccc(C)cc3)nnn2c2ccsc12,AC50,[1],"0.0631 µM [rising, full curve]"
COc1ccc2[nH]c(=O)c(CN(C3CCCCC3)C(c3nnnn3Cc3ccco3)C(C)C)cc2c1 (configuration not stated),AC50,[1],"6.31 µM [rising, full curve] [measured here: IkB-luc green channel]"
O=C(Nc1ccccc1C(=O)OCc1cc(=O)n2nc(C3CC3)sc2n1)c1ccc(Cl)cc1,AC50,[1],"0.251 µM [falling, full curve]"
Cc1ccc(C)c(N2CCN(c3nc4ccc(C)cc4nc3-n3nc(C)cc3C)CC2)c1,AC50,[1],"39.8 µM [falling, single point]"
CCOCCc1nnc(NC(=O)C(=O)c2cc(C)n(-c3ccc(C)c(C)c3)c2C)s1,AC50,[1],"12.6 µM [falling, partial curve]"
Cc1ccc(NC(=O)c2cccc3c(=O)c4c([nH]c23)CCCC4)c(C)c1,AC50,[1],"39.8 µM [falling, single point]"
O=C(Nc1ccc2c(c1)OCO2)[C@@H]1[C@@H]2C(=O)N(C3CCCCC3)C(=O)[C@@H]2C2c3ccccc3C=CN21 (some centres not stated),AC50,[1],"10 µM [falling, partial curve]"
CCOC(=O)c1sc2ccccc2c1S(=O)(=O)Nc1ccc(OC)c(Cl)c1,AC50,[1],"31.6 µM [falling, single point]"
CCOc1ccc(NC(=O)Nc2nnc(N3CCCCC3C)s2)cc1 (configuration not stated),AC50,[1],"31.6 µM [falling, single point]"
Cc1ccc(NC(=O)Nc2nnc(SCC(=O)N(C(C)C)C(C)C)s2)cc1,AC50,[1],"25.1 µM [falling, partial curve]"
CCc1ccc2oc(-c3ccc(C)c(NC(=O)c4cc([N+](=O)[O-])ccc4N4CCOCC4)c3)nc2c1,AC50,[1],"3.16 µM [falling, full curve]"
Clc1ccc(CSc2ccc(-c3cccs3)nn2)cc1,AC50,[1],"2 µM [rising, full curve]"
COc1ccc(C(=O)NCCSc2c[nH]c3ccccc23)cc1OC,AC50,[1],"20 µM [falling, partial curve]"
CCC(CC)C(=O)N1c2ccccc2C(C)(c2ccccc2)CC1(C)C (configuration not stated),AC50,[1],"12.6 µM [falling, partial curve]"
COC(=O)CN1C(=O)CSc2ccc(S(=O)(=O)Nc3ccc(F)c(Cl)c3)cc21,AC50,[1],"15.8 µM [falling, partial curve]"
CC(=O)N1CCc2c(sc3c2c(=O)n(Cc2ccccc2)c(=O)n3Cc2ccc(Cl)cc2)C1,AC50,[1],"39.8 µM [falling, single point]"
CSCCC(NS(=O)(=O)c1ccc2c(c1)oc(=O)n2C)C(=O)Nc1ccc(F)c(Cl)c1 (configuration not stated),AC50,[1],"15.8 µM [falling, partial curve]"
COc1ccc(NC(=O)c2c(NCc3cccc(F)c3)sc3c2CCC3)c(OC)c1,AC50,[1],"39.8 µM [falling, single point]"
CCCCOc1ccc(C2=NC(c3cccs3)=Nc3ccc(OC)cc3N2)cc1,AC50,[1],"15.8 µM [falling, single point]"
COc1ccc(OC)c(CNC(=O)c2c(C)oc3ncn(CC(C)C)c(=O)c23)c1,AC50,[1],"12.6 µM [falling, partial curve, poor fit]"
Cc1nn(C)c(C)c1S(=O)(=O)N(CC(=O)NCCc1ccc(Cl)cc1)c1ccc(C(C)C)cc1,AC50,[1],"10 µM [falling, partial curve]"
COc1cccc2sc(N(Cc3cccnc3)C(=O)c3ccco3)nc12,AC50,[1],"20 µM [falling, partial curve]"
COc1ccc2cccc(N3CCN(CCNC(=O)c4ccc(F)cc4)CC3)c2c1,AC50,[1],"15.8 µM [falling, partial curve]"
CC1Cc2ccccc2N1C(=O)C1CCCN(S(=O)(=O)c2cccc3nsnc23)C1 (configuration not stated),AC50,[1],"39.8 µM [falling, single point]"
Cc1ccccc1C(=O)Nc1ccc(S(=O)(=O)N2CCC(c3nc4ccccc4s3)CC2)cc1,AC50,[1],"20 µM [falling, single point]"
CCC(Oc1ccccc1)C(=O)Nc1cccc(OCc2cc(=O)n3cccc(C)c3n2)c1 (configuration not stated),AC50,[1],"7.94 µM [falling, full curve]"
CCOC(=O)c1c(C)oc(NC(=O)COc2ccc(Cl)cc2C)c1C#N,AC50,[1],"25.1 µM [falling, partial curve]"
CCOC(=O)c1ccc2c(c1)nc(SC/C(O)=C(\C#N)c1nc3ccccc3[nH]1)n2CC,AC50,[1],"10 µM [falling, partial curve]"
COc1cccc(NC(=O)CSc2nc(C)c(Cc3ccccc3)c(=O)[nH]2)c1,AC50,[1],"20 µM [falling, partial curve]"
Cc1nc2c(c(=O)n1Cc1ccco1)c1nc3ccccc3nc1n2Cc1ccccc1,AC50,[1],"12.6 µM [falling, partial curve]"
Cc1cccc(-c2nc3c4c(-c5ccccc5)c(-c5ccccc5)oc4ncn3n2)c1,AC50,[1],"25.1 µM [falling, partial curve, poor fit]"
CC(C)CN(C(=O)COC(=O)c1ccc2c(c1)NC(=O)CS2)C1CCS(=O)(=O)C1 (configuration not stated),AC50,[1],"25.1 µM [falling, partial curve]"
CC(=O)N1c2ccc(S(=O)(=O)N3CCC(C(=O)Nc4cccc(Cl)c4C)CC3)cc2CC1C (configuration not stated),AC50,[1],"25.1 µM [falling, partial curve]"
CCOC(=O)C1CCN(S(=O)(=O)c2cccc(-c3cn4cccc(C)c4n3)c2)CC1,AC50,[1],"10 µM [falling, partial curve]"
CN(C)c1ccc(CNC(=O)Cc2ccc(NC(=O)N3CCCCc4ccccc43)cc2)cc1,AC50,[1],"12.6 µM [falling, partial curve]"
CCOC(=O)c1ccc(NC(=O)CCCc2nc(-c3cc(OC)c(OC)c(OC)c3)no2)cc1,AC50,[1],"31.6 µM [falling, single point]"
CCOc1ccc(S(=O)(=O)N(CC(=O)Nc2ccc(OC)cc2OC)c2ccccc2)cc1,AC50,[1],"31.6 µM [falling, partial curve, poor fit]"

# 12 entries from above in another layout:
smiles	measurement	setting	value
O=C(CSc1nnc2scc(-c3ccc(Cl)cc3)n12)Nc1ccccc1F	AC50	[1]	3.16 µM [falling, partial curve]
C[C@@H](C(=O)O)c1ccc(C[C@@H]2CCCC2=O)cc1	AC50	[1]	1 µM [rising, full curve, poor fit] [measured here: IkB-luc green channel]
FC(F)(F)c1cc(-c2ccc3c(c2)OCO3)nc(NCc2ccco2)n1	AC50	[3]	7.94 µM [falling, full curve]
COc1ccc(NC(=O)c2c(NCc3cccc(F)c3)sc3c2CCC3)c(OC)c1	AC50	[1]	39.8 µM [falling, single point]
COc1cccc2sc(N(Cc3cccnc3)C(=O)c3ccco3)nc12	AC50	[1]	20 µM [falling, partial curve]
CC1Cc2ccccc2N1C(=O)C1CCCN(S(=O)(=O)c2cccc3nsnc23)C1 (configuration not stated)	AC50	[1]	39.8 µM [falling, single point]
Cc1ccccc1C(=O)Nc1ccc(S(=O)(=O)N2CCC(c3nc4ccccc4s3)CC2)cc1	AC50	[1]	20 µM [falling, single point]
CCOC(=O)c1ccc2c(c1)nc(SC/C(O)=C(\C#N)c1nc3ccccc3[nH]1)n2CC	AC50	[1]	10 µM [falling, partial curve]
COc1cccc(NC(=O)CSc2nc(C)c(Cc3ccccc3)c(=O)[nH]2)c1	AC50	[1]	20 µM [falling, partial curve]
Cc1nc2c(c(=O)n1Cc1ccco1)c1nc3ccccc3nc1n2Cc1ccccc1	AC50	[1]	12.6 µM [falling, partial curve]
Cc1cccc(-c2nc3c4c(-c5ccccc5)c(-c5ccccc5)oc4ncn3n2)c1	AC50	[1]	25.1 µM [falling, partial curve, poor fit]
CN(C)c1ccc(CNC(=O)Cc2ccc(NC(=O)N3CCCCc4ccccc43)cc2)cc1	AC50	[1]	12.6 µM [falling, partial curve]
